Some of the results follow.
Tests used:
Assay in all cases: log2 fold change, soluble protein after heating vs DMSO (PISA); higher = thermal stabilisation; K562 lysate, 10 uM; active = over 0.2 and 3.5 SD of the protein, either way, in both replicates (recomputed)
nilotinib = compound: Cc1cn(-c2cc(NC(=O)c3ccc(C)c(Nc4nccc(-c5cccnc5)n4)c3)cc(C(F)(F)F)c2)cn1 [nilotinib]
Outline: (§1)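 Dounce homogenisation of K562 pellets in PBS pH 7.4 with 1 mM MgCl2 produced a crude extract, used at 1 mg/mL protein. Exposure to 10 μM compound lasted 30 min, and aliquots were then heated for 3 min across 48°C-58°C, pooled and brought to 0.5% NP-40 at 4°C. The supernatant after 21,000xg for 90 min was quantified by TMTpro 16plex LC-MS/MS with channel sums equalised. Duplicate values are given as log-two fold change in thermal stability relative to solvent controls.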

Amino acid sequences for entries named in this document (tags omitted). A change or cut given only in a name is not applied to a line headed by its entry.
UniProt O94864: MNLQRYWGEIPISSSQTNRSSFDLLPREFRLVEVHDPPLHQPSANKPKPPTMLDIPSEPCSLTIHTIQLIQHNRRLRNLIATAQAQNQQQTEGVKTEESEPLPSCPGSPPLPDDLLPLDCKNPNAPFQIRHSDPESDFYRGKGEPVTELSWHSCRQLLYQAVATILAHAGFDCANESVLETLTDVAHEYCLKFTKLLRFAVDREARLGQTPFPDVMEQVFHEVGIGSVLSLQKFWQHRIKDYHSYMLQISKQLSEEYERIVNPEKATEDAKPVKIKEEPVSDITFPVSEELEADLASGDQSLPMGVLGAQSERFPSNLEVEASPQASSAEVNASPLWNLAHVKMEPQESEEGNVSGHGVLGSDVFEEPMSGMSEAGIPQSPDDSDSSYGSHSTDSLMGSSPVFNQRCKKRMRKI
UniProt Q12846: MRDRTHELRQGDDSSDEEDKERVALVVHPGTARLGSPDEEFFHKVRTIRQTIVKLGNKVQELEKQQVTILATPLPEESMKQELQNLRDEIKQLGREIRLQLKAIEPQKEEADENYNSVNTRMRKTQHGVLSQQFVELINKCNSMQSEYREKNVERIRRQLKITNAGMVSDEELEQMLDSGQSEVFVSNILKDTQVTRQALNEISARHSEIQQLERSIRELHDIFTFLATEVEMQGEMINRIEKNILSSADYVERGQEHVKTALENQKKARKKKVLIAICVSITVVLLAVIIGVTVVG
UniProt Q8IYB8: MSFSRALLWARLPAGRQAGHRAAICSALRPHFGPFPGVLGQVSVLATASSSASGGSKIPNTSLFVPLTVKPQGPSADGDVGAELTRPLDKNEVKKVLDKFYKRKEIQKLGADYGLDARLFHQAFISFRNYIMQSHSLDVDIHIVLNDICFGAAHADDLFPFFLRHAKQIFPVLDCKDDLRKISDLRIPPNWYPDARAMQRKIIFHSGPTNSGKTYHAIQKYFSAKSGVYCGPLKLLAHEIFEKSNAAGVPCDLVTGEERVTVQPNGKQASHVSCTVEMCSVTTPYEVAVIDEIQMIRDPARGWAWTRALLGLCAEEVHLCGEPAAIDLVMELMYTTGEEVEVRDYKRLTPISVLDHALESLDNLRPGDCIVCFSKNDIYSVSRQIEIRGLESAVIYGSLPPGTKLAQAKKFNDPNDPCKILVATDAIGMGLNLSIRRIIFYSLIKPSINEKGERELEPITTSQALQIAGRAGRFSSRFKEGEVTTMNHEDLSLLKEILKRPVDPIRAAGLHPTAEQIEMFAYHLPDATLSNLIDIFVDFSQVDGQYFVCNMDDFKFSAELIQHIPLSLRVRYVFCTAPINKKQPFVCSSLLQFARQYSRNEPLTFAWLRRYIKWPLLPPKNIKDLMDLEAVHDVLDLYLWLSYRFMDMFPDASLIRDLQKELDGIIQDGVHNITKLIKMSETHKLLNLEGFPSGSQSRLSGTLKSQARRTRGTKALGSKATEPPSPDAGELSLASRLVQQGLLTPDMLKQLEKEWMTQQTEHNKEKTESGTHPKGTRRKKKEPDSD
UniProt Q8WXE9: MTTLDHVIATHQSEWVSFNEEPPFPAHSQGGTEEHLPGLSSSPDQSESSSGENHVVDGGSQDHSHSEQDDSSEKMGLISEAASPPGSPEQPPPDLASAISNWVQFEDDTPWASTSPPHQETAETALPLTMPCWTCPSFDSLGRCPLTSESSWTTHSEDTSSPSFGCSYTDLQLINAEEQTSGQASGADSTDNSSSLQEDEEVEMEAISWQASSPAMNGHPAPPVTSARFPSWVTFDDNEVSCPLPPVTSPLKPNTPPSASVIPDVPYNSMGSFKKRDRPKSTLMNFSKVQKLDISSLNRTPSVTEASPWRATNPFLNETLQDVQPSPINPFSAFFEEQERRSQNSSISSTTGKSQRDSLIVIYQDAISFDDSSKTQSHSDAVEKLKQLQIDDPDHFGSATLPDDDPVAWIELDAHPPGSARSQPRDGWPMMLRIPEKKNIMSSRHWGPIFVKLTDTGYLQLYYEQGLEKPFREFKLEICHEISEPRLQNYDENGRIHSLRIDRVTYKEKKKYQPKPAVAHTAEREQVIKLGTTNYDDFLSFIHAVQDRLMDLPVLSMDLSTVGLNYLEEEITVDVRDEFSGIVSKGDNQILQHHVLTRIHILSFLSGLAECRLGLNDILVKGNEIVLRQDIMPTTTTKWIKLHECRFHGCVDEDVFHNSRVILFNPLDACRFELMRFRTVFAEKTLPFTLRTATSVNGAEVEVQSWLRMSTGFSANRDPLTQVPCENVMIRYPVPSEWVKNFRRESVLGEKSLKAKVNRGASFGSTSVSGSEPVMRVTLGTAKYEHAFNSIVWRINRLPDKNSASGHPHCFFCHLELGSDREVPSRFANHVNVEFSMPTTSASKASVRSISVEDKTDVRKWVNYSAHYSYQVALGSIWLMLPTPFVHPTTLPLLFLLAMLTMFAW
UniProt O00268, whole entry, looked up: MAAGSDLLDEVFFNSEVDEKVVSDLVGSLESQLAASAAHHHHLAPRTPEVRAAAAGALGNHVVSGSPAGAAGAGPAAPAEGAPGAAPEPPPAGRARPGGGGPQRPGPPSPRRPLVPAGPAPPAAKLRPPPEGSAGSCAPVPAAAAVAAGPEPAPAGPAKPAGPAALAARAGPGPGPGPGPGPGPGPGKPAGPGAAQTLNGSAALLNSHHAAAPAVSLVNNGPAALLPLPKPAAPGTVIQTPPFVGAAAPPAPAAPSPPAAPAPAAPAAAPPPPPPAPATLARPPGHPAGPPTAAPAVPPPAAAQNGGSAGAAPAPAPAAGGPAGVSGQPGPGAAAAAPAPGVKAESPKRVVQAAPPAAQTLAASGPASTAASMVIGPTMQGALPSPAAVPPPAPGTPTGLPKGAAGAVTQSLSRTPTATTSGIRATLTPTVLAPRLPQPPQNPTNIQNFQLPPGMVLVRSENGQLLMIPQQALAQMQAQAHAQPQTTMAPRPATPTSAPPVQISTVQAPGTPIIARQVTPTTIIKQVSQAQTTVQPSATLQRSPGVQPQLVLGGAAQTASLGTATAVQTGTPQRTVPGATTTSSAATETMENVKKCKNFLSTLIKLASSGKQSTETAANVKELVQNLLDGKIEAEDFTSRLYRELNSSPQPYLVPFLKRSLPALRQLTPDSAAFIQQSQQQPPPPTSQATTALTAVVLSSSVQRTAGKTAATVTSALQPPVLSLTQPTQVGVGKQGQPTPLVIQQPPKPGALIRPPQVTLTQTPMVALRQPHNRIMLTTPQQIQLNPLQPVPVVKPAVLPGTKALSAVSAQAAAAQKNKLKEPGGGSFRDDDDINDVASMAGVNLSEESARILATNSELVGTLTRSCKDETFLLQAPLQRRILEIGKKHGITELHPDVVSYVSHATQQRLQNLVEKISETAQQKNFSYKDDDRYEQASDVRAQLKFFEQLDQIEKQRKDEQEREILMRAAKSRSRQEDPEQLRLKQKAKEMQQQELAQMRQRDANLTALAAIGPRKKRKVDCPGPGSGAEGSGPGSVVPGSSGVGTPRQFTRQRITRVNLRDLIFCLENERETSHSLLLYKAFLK
UniProt Q16514: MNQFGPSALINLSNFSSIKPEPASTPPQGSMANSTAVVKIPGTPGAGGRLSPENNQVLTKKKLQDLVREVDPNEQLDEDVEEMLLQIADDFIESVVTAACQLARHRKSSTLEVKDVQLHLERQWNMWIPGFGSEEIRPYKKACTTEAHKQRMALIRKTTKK
UniProt O15056: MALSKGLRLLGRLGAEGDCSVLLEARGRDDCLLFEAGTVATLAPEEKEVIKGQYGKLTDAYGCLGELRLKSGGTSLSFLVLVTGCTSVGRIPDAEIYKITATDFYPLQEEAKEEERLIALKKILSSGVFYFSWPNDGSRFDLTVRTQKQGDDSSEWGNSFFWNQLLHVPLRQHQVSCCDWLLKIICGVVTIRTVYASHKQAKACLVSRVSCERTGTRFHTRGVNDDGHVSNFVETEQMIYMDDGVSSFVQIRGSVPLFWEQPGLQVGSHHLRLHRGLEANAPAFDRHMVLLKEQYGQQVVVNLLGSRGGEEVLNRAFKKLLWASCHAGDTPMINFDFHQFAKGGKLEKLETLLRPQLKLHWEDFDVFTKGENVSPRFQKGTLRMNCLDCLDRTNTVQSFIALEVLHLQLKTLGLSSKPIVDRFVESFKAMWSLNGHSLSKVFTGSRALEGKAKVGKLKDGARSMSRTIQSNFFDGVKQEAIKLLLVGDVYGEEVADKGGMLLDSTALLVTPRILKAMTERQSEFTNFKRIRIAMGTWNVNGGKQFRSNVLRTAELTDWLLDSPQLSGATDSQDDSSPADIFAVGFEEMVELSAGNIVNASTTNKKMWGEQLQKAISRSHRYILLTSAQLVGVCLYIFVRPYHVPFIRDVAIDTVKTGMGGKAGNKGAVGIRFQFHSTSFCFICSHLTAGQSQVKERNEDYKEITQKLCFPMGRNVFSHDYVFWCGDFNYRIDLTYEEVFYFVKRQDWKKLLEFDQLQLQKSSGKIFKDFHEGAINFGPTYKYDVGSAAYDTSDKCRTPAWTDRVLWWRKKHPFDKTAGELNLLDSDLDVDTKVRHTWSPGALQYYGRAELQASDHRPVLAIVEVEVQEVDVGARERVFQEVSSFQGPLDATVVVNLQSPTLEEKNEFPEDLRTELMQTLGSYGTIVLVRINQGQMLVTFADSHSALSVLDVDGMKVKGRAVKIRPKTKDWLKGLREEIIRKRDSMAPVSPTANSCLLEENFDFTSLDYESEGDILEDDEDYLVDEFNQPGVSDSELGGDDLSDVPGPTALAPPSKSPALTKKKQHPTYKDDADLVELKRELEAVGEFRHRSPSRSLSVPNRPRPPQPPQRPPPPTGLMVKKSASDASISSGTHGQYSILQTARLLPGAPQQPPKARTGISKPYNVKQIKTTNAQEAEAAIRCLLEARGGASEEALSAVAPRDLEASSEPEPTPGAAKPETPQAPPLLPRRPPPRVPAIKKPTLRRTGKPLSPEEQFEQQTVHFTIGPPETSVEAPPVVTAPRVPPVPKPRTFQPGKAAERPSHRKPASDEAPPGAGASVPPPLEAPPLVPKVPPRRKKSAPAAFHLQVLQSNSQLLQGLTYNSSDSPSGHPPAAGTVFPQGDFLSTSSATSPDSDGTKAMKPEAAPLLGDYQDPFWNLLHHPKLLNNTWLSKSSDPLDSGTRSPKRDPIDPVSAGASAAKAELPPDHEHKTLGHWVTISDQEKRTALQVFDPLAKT
UniProt Q15526: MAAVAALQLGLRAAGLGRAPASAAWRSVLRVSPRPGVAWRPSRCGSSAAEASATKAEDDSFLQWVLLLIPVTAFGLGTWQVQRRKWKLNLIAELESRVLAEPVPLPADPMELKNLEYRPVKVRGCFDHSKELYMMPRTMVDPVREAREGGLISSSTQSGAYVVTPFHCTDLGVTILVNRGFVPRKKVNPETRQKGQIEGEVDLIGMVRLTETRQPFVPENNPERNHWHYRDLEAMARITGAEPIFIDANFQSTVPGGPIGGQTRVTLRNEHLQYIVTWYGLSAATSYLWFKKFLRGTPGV
UniProt Q9UJZ1: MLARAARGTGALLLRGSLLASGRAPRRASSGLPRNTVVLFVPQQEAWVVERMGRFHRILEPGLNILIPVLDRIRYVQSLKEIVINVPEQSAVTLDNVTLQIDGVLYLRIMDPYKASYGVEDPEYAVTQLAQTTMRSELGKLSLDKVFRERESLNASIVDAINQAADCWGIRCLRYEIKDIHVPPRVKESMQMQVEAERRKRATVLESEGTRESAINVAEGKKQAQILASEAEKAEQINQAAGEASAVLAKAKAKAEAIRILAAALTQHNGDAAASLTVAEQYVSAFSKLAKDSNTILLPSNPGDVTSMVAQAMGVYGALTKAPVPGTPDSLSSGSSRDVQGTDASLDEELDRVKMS
UniProt O43815: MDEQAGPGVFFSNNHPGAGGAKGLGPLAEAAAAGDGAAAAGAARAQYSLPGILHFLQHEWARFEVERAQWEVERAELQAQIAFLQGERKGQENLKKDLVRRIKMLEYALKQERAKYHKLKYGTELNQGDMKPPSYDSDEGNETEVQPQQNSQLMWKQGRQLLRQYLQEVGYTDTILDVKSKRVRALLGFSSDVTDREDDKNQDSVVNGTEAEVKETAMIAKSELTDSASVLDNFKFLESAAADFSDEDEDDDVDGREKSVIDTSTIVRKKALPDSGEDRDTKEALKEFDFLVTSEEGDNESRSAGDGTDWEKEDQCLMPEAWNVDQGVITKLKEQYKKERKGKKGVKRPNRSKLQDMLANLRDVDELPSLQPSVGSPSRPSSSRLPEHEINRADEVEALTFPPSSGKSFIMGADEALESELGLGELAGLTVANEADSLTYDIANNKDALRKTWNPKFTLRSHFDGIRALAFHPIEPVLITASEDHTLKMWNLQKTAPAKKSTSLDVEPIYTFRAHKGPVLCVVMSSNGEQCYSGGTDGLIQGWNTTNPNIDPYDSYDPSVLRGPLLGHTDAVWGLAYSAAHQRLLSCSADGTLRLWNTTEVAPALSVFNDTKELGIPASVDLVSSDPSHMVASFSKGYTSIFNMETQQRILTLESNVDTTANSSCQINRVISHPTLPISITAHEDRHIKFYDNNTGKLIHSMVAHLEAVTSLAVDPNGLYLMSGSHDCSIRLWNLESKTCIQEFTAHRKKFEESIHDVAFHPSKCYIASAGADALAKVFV

[1] = compound: Cc1nc(Nc2n[nH]c3c2CN(C(=O)N[C@H](CN(C)C)c2ccccc2)C3(C)C)c2sccc2n1
Outline: as §1

dasatinib = compound: Cc1nc(Nc2ncc(C(=O)Nc3c(C)cccc3Cl)s2)cc(N2CCN(CCO)CC2)n1 [dasatinib]
Outline: as §1

[2] = compound: Cc1ncc(-c2ccnc(Nc3ccc(S(C)(=O)=O)cc3)n2)n1C(C)C
Outline: as §1

[3] = compound: Cn1cc(-c2ccc3c(c2)CCN3C(=O)Cc2cccc(C(F)(F)F)c2)c2c(N)ncnc21
Outline: as §1

quisinostat = compound: Cn1cc(CNCC2CCN(c3ncc(C(=O)NO)cn3)CC2)c2ccccc21 [quisinostat]
Outline: as §1

tipifarnib = compound: Cn1cncc1[C@@](N)(c1ccc(Cl)cc1)c1ccc2c(c1)c(-c1cccc(Cl)c1)cc(=O)n2C [tipifarnib]
Outline: as §1

[4] = compound: NC(=O)Nc1cc(-c2cccc(F)c2)sc1C(=O)N[C@H]1CCCNC1
Outline: as §1

[5] = compound: NC(=O)c1cnc(N[C@@H]2CCCC[C@@H]2N)nc1Nc1cccc(-n2nccn2)c1
Outline: as §1

[6] = compound: NC1(c2ccc(-c3nc4ccn5c(=O)[nH]nc5c4cc3-c3ccccc3)cc2)CCC1
Outline: as §1

[7] = compound: NCC(=O)Nc1ccc(-n2nc(C(F)(F)F)cc2-c2ccc3c(ccc4ccccc43)c2)cc1
Outline: as §1

vorinostat = compound: O=C(CCCCCCC(=O)Nc1ccccc1)NO [vorinostat]
Outline: as §1

silmitasertib = compound: O=C(O)c1ccc2c(c1)nc(Nc1cccc(Cl)c1)c1ccncc12 [silmitasertib]
Outline: as §1

[8] = compound: O=C1NC(=O)C(c2cnc3ccccn23)=C1c1cn2c3c(cc(F)cc13)CN(C(=O)N1CCCCC1)CC2
Outline: as §1

entospletinib = compound: c1cn2cc(-c3ccc4cn[nH]c4c3)nc(Nc3ccc(N4CCOCC4)cc3)c2n1 [entospletinib]
Outline: as §1

Measured: log2 fold change

SUPT7L (UniProt O94864)
inactive: nilotinib -0.073 | [1] 0.042 | dasatinib 0.235 | [2] -0.118 | [3] -0.072 | quisinostat 0.112 | tipifarnib 0.072 | [4] 0.048 | [5] 0.035 | [6] 0.062 | [7] -0.057 | vorinostat 0.009 | silmitasertib -0.001 | [8] -0.033 | entospletinib -0.024

TAF2 (UniProt Q6P1X5)
inactive: nilotinib 0.006 | [1] 0.013 | dasatinib -0.015 | [2] 0.005 | [3] -0.004 | quisinostat -0.015 | tipifarnib -0.002 | [4] 0.034 | [5] 0.01 | [6] 0.004 | [7] 0.034 | vorinostat -0.106 | silmitasertib 0.004 | [8] 0.05 | entospletinib 0.001

SUB1 (UniProt P53999)
inactive: nilotinib -0.021 | [1] 0.004 | dasatinib 0.034 | [2] -0.004 | [3] -0.019 | quisinostat 0.107 | tipifarnib 0.031 | [4] -0.017 | [5] -0.009 | [6] -0.005 | [7] -0.002 | vorinostat 0.085 | silmitasertib -0.01 | [8] 0.047 | entospletinib -0.017

STX4 (UniProt Q12846)
inactive: nilotinib -0.019 | [1] 0.001 | dasatinib -0.034 | [2] -0.013 | [3] 0.028 | quisinostat 0.058 | tipifarnib 0.008 | [4] 0.011 | [5] 0.006 | [6] 0.037 | [7] 0.051 | vorinostat 0.095 | silmitasertib 0.008 | [8] 0.008 | entospletinib 0.022

STOM (UniProt P27105)
inactive: nilotinib 0.021 | [1] 0.021 | dasatinib 0.004 | [2] -0.008 | [3] 0.071 | quisinostat 0.044 | tipifarnib -0.038 | [4] 0.022 | [5] 0.007 | [6] -0.025 | [7] -0.01 | vorinostat 0.1 | silmitasertib -0.01 | [8] -0.073 | entospletinib 0.007

STK39 (UniProt Q9UEW8)
inactive: nilotinib -0.104 | [1] 0.071 | dasatinib -0.045 | [2] -0.024 | [3] 0.046 | quisinostat -0.084 | tipifarnib -0.053 | [4] 0.053 | [5] 0.058 | [6] -0.082 | [7] -0.01 | silmitasertib 0.028 | [8] -0.006 | entospletinib -0.026
active: vorinostat -0.633

SUPV3L1 (UniProt Q8IYB8)
inactive: nilotinib -0.021 | [1] 0.018 | dasatinib 0.01 | [2] 0.005 | [3] 0.021 | quisinostat -0.024 | tipifarnib -0.01 | [4] 0.01 | [5] -0.018 | [6] -0.049 | [7] 0.009 | vorinostat 0.038 | silmitasertib -0.019 | [8] 0.013 | entospletinib -0.016

SUGP2 (UniProt Q8IX01)
inactive: nilotinib -0.015 | [1] -0.045 | dasatinib -0.115 | [2] -0.018 | [3] 0.112 | quisinostat -0.018 | tipifarnib -0.058 | [4] 0.154 | [5] 0.104 | [6] 0.002 | [7] -0.001 | vorinostat -0.092 | silmitasertib -0.026 | [8] 0.037 | entospletinib -0.088

STON2 isoform 3 (UniProt Q8WXE9)
inactive: nilotinib -0.042 | [1] -0.047 | dasatinib -0.015 | [2] -0.056 | [3] 0.014 | quisinostat -0.053 | tipifarnib 0.067 | [4] 0 | [5] 0.166 | [6] -0.031 | [7] 0.042 | vorinostat -0.006 | silmitasertib 0.026 | [8] -0.118 | entospletinib -0.034

SUOX (UniProt P51687)
inactive: nilotinib 0.008 | [1] 0.004 | dasatinib 0.007 | [2] 0.005 | [3] 0.051 | quisinostat -0.058 | tipifarnib -0.056 | [4] 0.008 | [5] 0.017 | [6] 0 | [7] -0.011 | vorinostat 0.058 | silmitasertib 0.01 | [8] 0.006 | entospletinib 0.038

TAF4 (UniProt O00268)
inactive: nilotinib 0.014 | [1] -0.087 | dasatinib -0.009 | [2] 0 | [3] 0.003 | quisinostat -0.097 | tipifarnib -0.029 | [4] 0.072 | [5] 0.058 | [6] 0.079 | [7] 0.038 | vorinostat 0.019 | silmitasertib -0.056 | [8] -0.047 | entospletinib 0.017

TAF12 (UniProt Q16514)
inactive: nilotinib 0.174 | [1] 0 | dasatinib -0.038 | [2] 0.046 | [3] 0.003 | quisinostat -0.039 | tipifarnib -0.021 | [4] -0.027 | [5] 0.042 | [6] 0.049 | [7] 0.148 | vorinostat -0.172 | silmitasertib 0.046 | [8] 0.01 | entospletinib -0.035

SYNJ2 (UniProt O15056)
inactive: nilotinib 0.032 | [1] -0.029 | dasatinib -0.037 | [2] 0.005 | [3] -0.002 | quisinostat -0.039 | tipifarnib -0.071 | [4] -0.001 | [5] 0.033 | [6] -0.011 | [7] 0.015 | vorinostat -0.206 | silmitasertib 0.034 | [8] 0.024 | entospletinib 0.046

SURF1 (UniProt Q15526)
inactive: nilotinib -0.012 | [1] -0.065 | dasatinib -0.006 | [2] 0.091 | [3] 0.022 | quisinostat 0.041 | tipifarnib -0.095 | [4] -0.021 | [5] 0.024 | [6] -0.021 | [7] -0.03 | vorinostat 0.088 | silmitasertib 0.062 | [8] -0.007 | entospletinib -0.028

Quoted at random: two entries already listed.
STON2 isoform 3 (UniProt Q8WXE9)
inactive: nilotinib -0.042 | [1] -0.047 | dasatinib -0.015 | [2] -0.056 | [3] 0.014 | quisinostat -0.053 | tipifarnib 0.067 | [4] 0 | [5] 0.166 | [6] -0.031 | [7] 0.042 | vorinostat -0.006 | silmitasertib 0.026 | [8] -0.118 | entospletinib -0.034

SUOX (UniProt P51687)
inactive: nilotinib 0.008 | [1] 0.004 | dasatinib 0.007 | [2] 0.005 | [3] 0.051 | quisinostat -0.058 | tipifarnib -0.056 | [4] 0.008 | [5] 0.017 | [6] 0 | [7] -0.011 | vorinostat 0.058 | silmitasertib 0.01 | [8] 0.006 | entospletinib 0.038

Later entries

STX3 (UniProt Q13277)
inactive: nilotinib -0.035 | [1] -0.014 | dasatinib -0.024 | [2] 0.025 | [3] 0.029 | quisinostat 0.169 | tipifarnib 0.044 | [4] -0.014 | [5] 0.004 | [6] 0.032 | [7] -0.02 | vorinostat 0.112 | silmitasertib 0.01 | [8] 0.04 | entospletinib -0.001

SUPT4H1 (UniProt P63272)
inactive: nilotinib 0.022 | [1] -0.009 | dasatinib -0.009 | [2] 0.019 | [3] -0.076 | quisinostat 0.088 | tipifarnib -0.067 | [4] -0.007 | [5] -0.015 | [6] -0.043 | [7] 0.037 | vorinostat 0.127 | silmitasertib -0.009 | [8] 0.026 | entospletinib -0.022

TACO1 (UniProt Q9BSH4)
inactive: nilotinib -0.009 | [1] -0.028 | dasatinib -0.042 | [2] 0.005 | [3] -0.017 | quisinostat 0.096 | tipifarnib -0.025 | [4] 0.002 | [5] 0.038 | [6] -0.014 | [7] 0 | vorinostat -0.175 | silmitasertib -0.018 | [8] 0.05 | entospletinib 0.08

STOML2 (UniProt Q9UJZ1)
inactive: nilotinib -0.017 | [1] -0.01 | dasatinib 0.004 | [2] 0.017 | [3] -0.001 | quisinostat 0.035 | tipifarnib 0.005 | [4] 0.018 | [5] 0.002 | [6] -0.003 | [7] 0.03 | vorinostat 0.129 | silmitasertib -0.021 | [8] 0.028 | entospletinib 0.011

STRN (UniProt O43815)
inactive: nilotinib 0.021 | [1] 0.016 | dasatinib 0.018 | [2] -0.005 | [3] 0.03 | quisinostat 0.011 | tipifarnib -0.006 | [4] 0.007 | [5] -0.003 | [6] 0.013 | [7] 0.037 | vorinostat -0.05 | silmitasertib 0.017 | [8] -0.011 | entospletinib 0.002

STX18 (UniProt Q9P2W9)
inactive: nilotinib 0.031 | [1] -0.06 | dasatinib -0.031 | [2] 0.01 | [3] -0.013 | quisinostat -0.02 | tipifarnib -0.006 | [4] 0.01 | [5] 0.051 | [6] -0.268 | [7] 0 | vorinostat -0.114 | silmitasertib 0.082 | [8] -0.014 | entospletinib -0.091

SYNJ1 (UniProt O43426)
inactive: nilotinib 0.003 | [1] 0.069 | dasatinib 0.011 | [2] -0.052 | [3] -0.023 | quisinostat -0.007 | tipifarnib -0.107 | [4] 0.016 | [5] 0.021 | [6] 0.006 | [7] -0.075 | vorinostat -0.049 | silmitasertib 0.001 | [8] -0.025 | entospletinib -0.033
